In US20100056439A1 (DOMANTIS, published 2010) one finds binding data, which are given here for 6 molecules.

To fix the notation:
B1: DOM16-80 (protein)
chain: DIQMTQSPSSLSASVGDRVTITCRASQNIYMNLEWYQQKPGKAPKLLIVFGSWLQSGVPSRFSGSGSGTDFTLTISSLQPEDFATYYCRQTEAPPSTFGQGTKVEIKR
B2: DOM16-52 (protein)
VH: EVQLLESGGGLVQPGGSLRLSCAASGFTFAEQPMTWARQAPGKGLEWVSSISSFGDLTYYADSVKGRFTISRDNSKNTLYLQMNSLRAEDTAVYYCAKGVYRISRFDYWGQGTLVTVSS
B3: DOM16-32 (protein)
VL: DIQMTQSPSSLSASVGDRVTITCRASKMIDENLAWYQQKPGKAPKLLILRSSGLQSGVPSRFSGSGSGTDFTLTISSLQPEDFATYYCHQGHSAPGTFGQGTKVEIKR
B4: DOM16-112 (protein)
chain: DIQMTQSPSSLSASVGDRVTITCRASQNIGTNLKWYQQKPEKAPKLLIYYGSLLQSGVPSRFSGSGSGTDFTLTISSLQPEDFATYYCQQDYDFPYTFGQGTKVEIKR
B5: DOM16-72 (protein)
VL: DIQMTQSPSSLSASVGDRVTITCRASQHIGVSLDWYQQKPGKAPKLLIYYGSELQSGVPSRFSGSGSGTDFTLTISSLQPEDFATYYCQQYVTHPTTFGQGTKVEIKR
B6: DOM16-79 (protein)
chain: DIQMTQSPSSLSASVGDRVTITCRASQWIGILLDWYQQKPGEAPKLLIYYASFLQSGVPSRFSGSGSGTDFTLTISSLQPEDFATYYCQRSDLSPLTFGQGTKVEIKR

Results are given in words; binding and its absence hold for the method and conditions named. Some binding calls cover weakened binding; strength is not graded here.

One experiment has as its target EGFR (form not stated; KD column of Table 3 and BIAcore epitope mapping) (UniProt P00533). Kind of experiment: competitive binding assay, BIAcore biosensor; reference DOM16-39-200.
For B1, the binding entry is on record as “binds”.
On to B2, for which the binding entry is “binds”.
The same measure, in the same setting: in the case of B3 it was “binds”.

The target is the same in another experiment. In words: competitive binding assay, BIAcore biosensor; competitor DOM16-39-200.
Take B4: the binding entry is listed as “binds”.
On to B5, for which the binding entry is given as “binds”.
For B6, the binding result was “binds”.
